The supplement of paper PMC8104966
Several values for one entry are separate records, joined by “and”; a condition that tells them apart may be missing. Equal values may be shown once. Some of the results follow. This data set is noisy: repeats of one test often differ as much as different tests do.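 U2OS cells carrying ACE2 were mixed with U2OS cells carrying full-length spike, and fusion was scored by imaging as the share of nuclei showing both cell types' fluorescent markers. A compound counts as an inhibitory hit when it is non-toxic and its fusion z-score falls below -3, meaning more than three standard deviations below the plate's DMSO wells.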

Test system: U2OS ACE2 x SARS-CoV-2 spike co-culture
Experiment: cell-cell fusion (fraction fused) z-score vs plate DMSO control; higher = more fusion
Conditions: 30 µM; 5 h; toxicity class: non-toxic, passed QC

Compound	cell-cell fusion (z-score)
COC(=O)N[C@@H](C)CNc1nccc(-c2cn(C(C)C)nc2-c2cc(Cl)cc(NS(C)(=O)=O)c2F)n1 [Encorafenib]	inactive: 0.608
CO[C@H]1[C@@H](O)[C@@H](C)O[C@H](O[C@H]2CCC3(C)C4CCC5(C)[C@@H](C6=CC(=O)OC6)CC[C@]5(O)[C@@H]4CC[C@]3(O)C2)[C@@H]1O (some centres not stated)	inactive: 1.46
Cc1cc(-c2ccccc2)nnc1NCCN1CCOCC1.Cl.Cl	inactive: 1.41
O=C(CCCc1ccccc1)[O][Na] [4-Phenylbutyrate]	inactive: 2.28
CCCCS(=N)(=O)CCC(N)C(=O)O (racemic) [DL-Buthionine-[S,R]-sulfoximine]	inactive: 0.522
CCCCCCCCCCCC[C@H](C(=O)O)[C@@H](C)C(=O)O	inactive: 1.75
COC1=C(OC)C(=O)C(C/C=C(\C)CC/C=C(\C)CC/C=C(\C)CC/C=C(/C)CC/C=C(\C)CC/C=C(\C)CC/C=C(\C)CC/C=C(\C)CC/C=C(\C)CCC=C(C)C)=C(C)C1=O	inactive: 1.14
CC(C)=CCC/C(C)=C/CC/C(C)=C/CC/C(C)=C/CC/C(C)=C/CC/C(C)=C/CC/C(C)=C/CC/C(C)=C/CC/C(C)=C/CO	inactive: 1.48
CC[C@@H]1OC(=O)C[C@@H](O)[C@H](C)[C@@H](O[C@@H]2O[C@H](C)[C@@H](O)[C@H](N(C)C)[C@H]2O)[C@@H](CCN2C[C@H](C)C[C@H](C)C2)C[C@@H](C)C(=O)/C=C/C(C)=C\[C@@H]1CO[C@@H]1O[C@H](C)[C@@H](O)[C@@H](OC)[C@H]1OC	inactive: 3.06
O=C([O-])CCSC[C@H]1O[C@@H]2O[C@H]3[C@H](O)[C@@H](O)[C@@H](O[C@H]4[C@H](O)[C@@H](O)[C@@H](O[C@H]5[C@H](O)[C@@H](O)[C@@H](O[C@H]6[C@H](O)[C@@H](O)[C@@H](O[C@H]7[C@H](O)[C@@H](O)[C@@H](O[C@H]8[C@H](O)[C@@H](O)[C@@H](O[C@H]9[C@H](O)[C@@H](O)[C@@H](O[C@H]1[C@H](O)[C@H]2O)O[C@@H]9CSCCC(=O)[O-])O[C@@H]8CSCCC(=O)[O-])O[C@@H]7CSCCC(=O)[O-])O[C@@H]6CSCCC(=O)[O-])O[C@@H]5CSCCC(=O)[O-])O[C@@H]4CSCCC(=O)[O-])O[C@@H]3CSCCC(=O)[O-].[Na+].[Na+].[Na+].[Na+].[Na+].[Na+].[Na+].[Na+] [Sugammadex (sodium)]	inactive: 2.68
CC/C=C\C/C=C\C/C=C\C/C=C\C/C=C\CCCC(=O)OCC [OMEGA-3-ACID ESTERS (EPA shown)]	inactive: 2.13
O=C(O)CCC(=O)c1ccc(-c2ccccc2)cc1	inactive: 2.67
CCc1cc(C(N)=S)ccn1	inactive: 2.56
C[C@H]1O[C@@H](n2cc(F)c(=O)[nH]c2=O)[C@H](O)[C@@H]1O [5-fluoro-5'-deoxyuridine]	inactive: 4.29
CC(=O)OCC(COC(C)=O)OC(C)=O [Triacetin]	inactive: 3.41
CCCCN1CCCCC1C(=O)Nc1c(C)cccc1C.Cl (configuration not stated) [Bupivacaine hydrochloride]	inactive: 5.22
C/C=C1\[C@H]2C=C(C)C[C@]1(N)c1ccc(=O)[nH]c1C2	inactive: 2.29
CCC(C)C(=O)O[C@H]1C[C@H](O)C=C2C=C[C@H](C)[C@H](CC[C@@H](O)C[C@@H](O)CC(=O)[O-])C21.[Na+] (some centres not stated)	inactive: 2
Nc1cc(O)nc(N)n1 [2,4-Diamino-6-pyrimidinone]	inactive: 1.4
CC(=O)OCC1=C(C(=O)[O-])N2C(=O)[C@@H](NC(=O)Cc3cccs3)[C@H]2SC1.[Na+] [Cephalothin sodium]	inactive: 2.16
CCCCC(CC)CNC(=N)NC(=N)NCCCCCCNC(=N)NC(=N)NCC(CC)CCCC.Cl.Cl (configuration not stated)	active: -12.2
CS(=O)(=O)c1cccc(CNc2nc(Nc3ccc4c(c3)CCC(=O)N4)ncc2C(F)(F)F)c1	inactive: 1.55 and inactive: -1.44
Cn1ncnc1[C@H]1C2=c3c(cc(F)cc3=N[C@@H]1c1ccc(F)cc1)C(=O)NN2 [Talazoparib]	inactive: 0.947

Compound	cell-cell fusion (z-score)
CC(C)(Oc1ccc(Cl)cc1)C(=O)O	inactive: 1.09
CNCCC(Oc1ccccc1C)c1ccccc1 (configuration not stated) [Tomoxetine]	inactive: 2.69
Cl.N=C(N)NC(=N)NCCc1ccccc1 [Phenformin HCl]	inactive: 0.013
CN1CCN(CC(=O)N2c3ccccc3C(=O)Nc3cccnc32)CC1.Cl.Cl [Pirenzepine dihydrochloride]	inactive: -1.01
Cl.c1cncc(C2CCCCN2)c1 (configuration not stated)	inactive: 1.69
O=C(NC1CCCCC1)NC1CCCCC1	inactive: 0.174
COc1c2ccoc2cc2oc(=O)ccc12	inactive: 2.87
COC(=O)C1=C(C)NC(C)=C([N+](=O)[O-])C1c1ccccc1C(F)(F)F (racemic)	inactive: 2.52
Cl.CN(C)CC\C=C1\c2ccccc2CCc2ccccc12 [Amitriptyline hydrochloride]	inactive: 0.838
NC(=O)SC[C@H](N)C(=O)O	inactive: 2.89
CC1=C(CC(=O)O)c2cc(F)ccc2/C1=C\c1ccc(S(C)=O)cc1 (configuration not stated) [Sulindac]	inactive: 1.12
CC1=C(CC(=O)O)c2cc(F)ccc2/C1=C\c1ccc(S(C)=O)cc1 (configuration not stated)	inactive: 1.09
C/C=C(/C(=C/C)c1ccc(O)cc1)c1ccc(O)cc1 [Dienestrol]	inactive: 4.02
Nc1ccc(S(=O)(=O)[O-])cc1.Nc1ccc(S(=O)(=O)[O-])cc1.[Zn+2]	inactive: 1.7
C=CCOC(Cn1ccnc1)c1ccc(Cl)cc1Cl.O=S(=O)(O)O (configuration not stated)	inactive: -0.747
CC(C)Nc1cccnc1N1CCN(C(=O)c2cc3cc(NS(C)(=O)=O)ccc3[nH]2)CC1.CS(=O)(=O)O [Delavirdine (mesylate)]	inactive: 1.01
C[Se]CC[C@H](N)C(=O)O.NCCO	inactive: 0.996
COc1cc2c(cc1OC)[C@@H]1C(=O)c3ccc4c(c3O[C@@H]1CO2)CC(C(C)C)O4 (some centres not stated)	inactive: 1.24
CC(C)CCCC(C)[C@H]1CCC2C3CC=C4C[C@@H](OC(=O)CCC(=O)O)CC[C@]4(C)C3CC[C@@]21C (some centres not stated)	inactive: 3.22
N#C/C(=C1/SC[C@@H](c2ccc(Cl)cc2Cl)S1)n1ccnc1 [Luliconazole]	inactive: 3.4
Oc1cccc(O)c1	inactive: 2.7
C[C@]12CC[C@@H]3c4ccc(O)cc4C[C@@H](CCCCCCCCCS(=O)CCCC(F)(F)C(F)(F)F)[C@H]3[C@@H]1CC[C@@H]2O (some centres not stated) [Fulvestrant]	inactive: 2.83
NC1C[C@H]1c1ccccc1.O=S(=O)(O)O (some centres not stated)	inactive: 2.09

Compound	cell-cell fusion (z-score)
FC(F)(F)c1ccc(/C=C/c2nc(COc3ccc(CCCCn4ccnn4)cc3)co2)cc1 [Mubritinib (TAK 165)]	inactive: 1.09
Cl.N[C@@H](COP(=O)(O)O)C(=O)O	inactive: 2.58
Cl.N[C@@H]1[C@@H](O)[C@H](O)[C@@H](CO)O[C@H]1O	inactive: 0.866
CCCNC(C)C(=O)Nc1ccccc1C (configuration not stated) [Prilocaine]	inactive: 2.05
CCOc1cc2ncc(C#N)c(Nc3ccc(OCc4ccccn4)c(Cl)c3)c2cc1NC(=O)/C=C/CN(C)C [Neratinib]	inactive: 1.17
CS(=N)(=O)CC[C@H](N)C(=O)O (stereo partly drawn) [L-Methionine sulfoximine]	inactive: 2.44
CS(=N)(=O)CC[C@H](N)C(=O)O (some centres not stated)	inactive: 2.02
CC1=C(C(=O)O)N2C(=O)[C@@H](NC(=O)C(N)C3=CCC=CC3)[C@H]2SC1 (some centres not stated) [Cephradine]	inactive: 0.921
CCOc1ccc(C(=O)c2ccc(OC)c(O)c2O)cc1	inactive: 2.52
CC(=O)OCCN1C(=O)c2c(C)nc3ccc(S(=O)(=O)N4CCOCC4)cc3c2C1=O [Ivachtin]	inactive: 1.36
CCN1CCN(c2ccc(Nc3cc(N(C)C(=O)Nc4c(Cl)c(OC)cc(OC)c4Cl)ncn3)cc2)CC1	inactive: 2.13
CNCC(=O)OCc1cccnc1N(C)C(=O)OC(C)[n+]1cnn(C[C@](O)(c2cc(F)ccc2F)[C@@H](C)c2nc(-c3ccc(C#N)cc3)cs2)c1.O=S(=O)([O-])O (some centres not stated) [Isavuconazonium sulfate]	active: -4.98
O=C1Nc2ccc(I)cc2C1=Cc1cc(Br)c(O)c(Br)c1	inactive: 6.38
CCOP(=S)(OCC)Oc1cc(C)nc(C(C)C)n1	inactive: 1.12
CN(CCCOc1ccc(Cc2ccccc2)cc1)CCC(=O)O.Cl	inactive: 2.81
Cl.Clc1ccccc1CN1CCc2sccc2C1	inactive: 4.05
COc1cccc(N2CCN(C3=Nc4c(F)cccc4[C@H](CC(=O)O)N3c3cc(C(F)(F)F)ccc3OC)CC2)c1 [Letermovir]	inactive: 1.62
CN1CCc2cc(Cl)c(O)cc2[C@@H](c2ccccc2)C1.Cl	inactive: 2.84
Cl.NC1=NCC2c3ccccc3Cc3ccccc3N12 (configuration not stated) [Epinastine hydrochloride]	inactive: 4.75
COc1ccc(NC(=O)c2ccc(C(=N)N(C)C)cc2)c(C(=O)Nc2ccc(Cl)cn2)c1.Cl	inactive: -1.18
C[C@]12CCC(=O)C=C1[C@@H]1C[C@@H]1[C@H]1[C@@H]3[C@@H]4C[C@@H]4[C@@]4(CCC(=O)O4)[C@@]3(C)CC[C@@H]12 [Drospirenone]	inactive: 3.76

Quoted at random: three entries already listed.
Compound	cell-cell fusion (z-score)
FC(F)(F)c1ccc(/C=C/c2nc(COc3ccc(CCCCn4ccnn4)cc3)co2)cc1 [Mubritinib (TAK 165)]	inactive: 1.09
Cl.N[C@@H](COP(=O)(O)O)C(=O)O	inactive: 2.58
Cl.NC1=NCC2c3ccccc3Cc3ccccc3N12 (configuration not stated) [Epinastine hydrochloride]	inactive: 4.75
